The target of the test is Drosophila α-spectrin (Drosophila (endogenous in adult heads)) (UniProt P13395). The test is described as follows: co-IP; Drosophila adult head extracts in RIPA buffer; ~500 µg lysate protein with 10 µg anti-Drosophila α-spectrin 3A9 or normal mouse IgG; Protein A agarose overnight at 4 °C; washed 3 × with RIPA buffer.

By UniProt entry, the sequences of proteins in these tests, tags left out. Where a name states a change or a piece, a line headed by the entry shows the natural chain unless it says otherwise.
UniProt P13395: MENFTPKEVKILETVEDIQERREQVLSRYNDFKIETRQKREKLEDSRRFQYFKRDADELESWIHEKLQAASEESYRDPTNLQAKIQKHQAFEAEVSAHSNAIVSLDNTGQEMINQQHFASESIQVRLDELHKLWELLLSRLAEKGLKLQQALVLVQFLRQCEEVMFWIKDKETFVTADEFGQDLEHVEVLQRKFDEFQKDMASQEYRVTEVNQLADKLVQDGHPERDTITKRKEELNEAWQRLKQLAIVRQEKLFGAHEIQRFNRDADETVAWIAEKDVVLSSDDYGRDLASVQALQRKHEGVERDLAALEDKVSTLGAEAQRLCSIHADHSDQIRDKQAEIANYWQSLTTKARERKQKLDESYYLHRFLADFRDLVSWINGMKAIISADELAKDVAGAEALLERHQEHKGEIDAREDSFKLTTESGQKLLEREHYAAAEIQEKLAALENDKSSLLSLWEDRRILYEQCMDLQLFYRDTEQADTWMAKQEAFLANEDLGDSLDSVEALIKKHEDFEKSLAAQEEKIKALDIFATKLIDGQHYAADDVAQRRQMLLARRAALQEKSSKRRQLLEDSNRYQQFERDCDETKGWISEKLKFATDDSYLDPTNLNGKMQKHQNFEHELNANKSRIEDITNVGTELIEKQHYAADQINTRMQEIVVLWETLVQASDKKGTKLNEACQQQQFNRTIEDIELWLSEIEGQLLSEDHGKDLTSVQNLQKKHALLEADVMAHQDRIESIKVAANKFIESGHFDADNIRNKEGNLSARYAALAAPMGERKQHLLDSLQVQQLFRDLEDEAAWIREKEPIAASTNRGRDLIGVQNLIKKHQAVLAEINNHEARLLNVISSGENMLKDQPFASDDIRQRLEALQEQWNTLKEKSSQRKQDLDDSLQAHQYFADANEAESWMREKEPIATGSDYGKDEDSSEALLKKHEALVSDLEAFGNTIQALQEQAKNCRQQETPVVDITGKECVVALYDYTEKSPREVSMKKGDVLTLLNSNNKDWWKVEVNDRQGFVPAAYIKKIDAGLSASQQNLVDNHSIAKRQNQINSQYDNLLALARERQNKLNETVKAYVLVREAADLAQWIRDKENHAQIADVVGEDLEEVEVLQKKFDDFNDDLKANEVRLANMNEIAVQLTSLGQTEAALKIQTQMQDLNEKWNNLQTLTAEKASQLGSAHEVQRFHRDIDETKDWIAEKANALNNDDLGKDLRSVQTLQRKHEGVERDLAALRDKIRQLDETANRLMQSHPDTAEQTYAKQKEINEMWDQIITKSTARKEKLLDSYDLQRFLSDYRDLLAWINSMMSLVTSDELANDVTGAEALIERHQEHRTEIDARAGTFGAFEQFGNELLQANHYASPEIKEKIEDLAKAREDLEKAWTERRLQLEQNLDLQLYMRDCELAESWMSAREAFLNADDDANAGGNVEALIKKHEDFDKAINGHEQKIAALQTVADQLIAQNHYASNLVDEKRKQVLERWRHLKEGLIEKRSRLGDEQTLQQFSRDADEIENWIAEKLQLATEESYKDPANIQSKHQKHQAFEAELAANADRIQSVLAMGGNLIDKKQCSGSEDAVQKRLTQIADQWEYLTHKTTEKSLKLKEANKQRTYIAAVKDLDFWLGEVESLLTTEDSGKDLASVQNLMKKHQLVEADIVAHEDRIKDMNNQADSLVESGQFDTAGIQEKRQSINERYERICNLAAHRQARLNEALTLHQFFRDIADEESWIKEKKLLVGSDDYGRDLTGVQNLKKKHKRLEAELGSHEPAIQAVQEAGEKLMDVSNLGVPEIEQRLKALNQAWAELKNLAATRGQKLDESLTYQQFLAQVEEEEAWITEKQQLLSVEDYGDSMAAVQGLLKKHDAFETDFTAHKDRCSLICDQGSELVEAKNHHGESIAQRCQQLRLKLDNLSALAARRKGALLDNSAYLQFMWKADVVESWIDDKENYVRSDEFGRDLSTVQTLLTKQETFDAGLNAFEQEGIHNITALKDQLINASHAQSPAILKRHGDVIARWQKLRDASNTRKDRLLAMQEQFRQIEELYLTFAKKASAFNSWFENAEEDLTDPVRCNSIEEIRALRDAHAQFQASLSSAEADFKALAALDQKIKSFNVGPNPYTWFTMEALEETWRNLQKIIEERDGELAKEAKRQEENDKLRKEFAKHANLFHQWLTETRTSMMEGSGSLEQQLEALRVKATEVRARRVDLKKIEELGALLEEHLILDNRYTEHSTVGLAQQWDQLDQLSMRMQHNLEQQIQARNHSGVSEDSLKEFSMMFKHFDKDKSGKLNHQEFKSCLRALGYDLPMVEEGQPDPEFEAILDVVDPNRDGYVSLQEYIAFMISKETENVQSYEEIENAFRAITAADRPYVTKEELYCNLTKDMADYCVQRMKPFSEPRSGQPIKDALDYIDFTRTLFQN
UniProt Q00963: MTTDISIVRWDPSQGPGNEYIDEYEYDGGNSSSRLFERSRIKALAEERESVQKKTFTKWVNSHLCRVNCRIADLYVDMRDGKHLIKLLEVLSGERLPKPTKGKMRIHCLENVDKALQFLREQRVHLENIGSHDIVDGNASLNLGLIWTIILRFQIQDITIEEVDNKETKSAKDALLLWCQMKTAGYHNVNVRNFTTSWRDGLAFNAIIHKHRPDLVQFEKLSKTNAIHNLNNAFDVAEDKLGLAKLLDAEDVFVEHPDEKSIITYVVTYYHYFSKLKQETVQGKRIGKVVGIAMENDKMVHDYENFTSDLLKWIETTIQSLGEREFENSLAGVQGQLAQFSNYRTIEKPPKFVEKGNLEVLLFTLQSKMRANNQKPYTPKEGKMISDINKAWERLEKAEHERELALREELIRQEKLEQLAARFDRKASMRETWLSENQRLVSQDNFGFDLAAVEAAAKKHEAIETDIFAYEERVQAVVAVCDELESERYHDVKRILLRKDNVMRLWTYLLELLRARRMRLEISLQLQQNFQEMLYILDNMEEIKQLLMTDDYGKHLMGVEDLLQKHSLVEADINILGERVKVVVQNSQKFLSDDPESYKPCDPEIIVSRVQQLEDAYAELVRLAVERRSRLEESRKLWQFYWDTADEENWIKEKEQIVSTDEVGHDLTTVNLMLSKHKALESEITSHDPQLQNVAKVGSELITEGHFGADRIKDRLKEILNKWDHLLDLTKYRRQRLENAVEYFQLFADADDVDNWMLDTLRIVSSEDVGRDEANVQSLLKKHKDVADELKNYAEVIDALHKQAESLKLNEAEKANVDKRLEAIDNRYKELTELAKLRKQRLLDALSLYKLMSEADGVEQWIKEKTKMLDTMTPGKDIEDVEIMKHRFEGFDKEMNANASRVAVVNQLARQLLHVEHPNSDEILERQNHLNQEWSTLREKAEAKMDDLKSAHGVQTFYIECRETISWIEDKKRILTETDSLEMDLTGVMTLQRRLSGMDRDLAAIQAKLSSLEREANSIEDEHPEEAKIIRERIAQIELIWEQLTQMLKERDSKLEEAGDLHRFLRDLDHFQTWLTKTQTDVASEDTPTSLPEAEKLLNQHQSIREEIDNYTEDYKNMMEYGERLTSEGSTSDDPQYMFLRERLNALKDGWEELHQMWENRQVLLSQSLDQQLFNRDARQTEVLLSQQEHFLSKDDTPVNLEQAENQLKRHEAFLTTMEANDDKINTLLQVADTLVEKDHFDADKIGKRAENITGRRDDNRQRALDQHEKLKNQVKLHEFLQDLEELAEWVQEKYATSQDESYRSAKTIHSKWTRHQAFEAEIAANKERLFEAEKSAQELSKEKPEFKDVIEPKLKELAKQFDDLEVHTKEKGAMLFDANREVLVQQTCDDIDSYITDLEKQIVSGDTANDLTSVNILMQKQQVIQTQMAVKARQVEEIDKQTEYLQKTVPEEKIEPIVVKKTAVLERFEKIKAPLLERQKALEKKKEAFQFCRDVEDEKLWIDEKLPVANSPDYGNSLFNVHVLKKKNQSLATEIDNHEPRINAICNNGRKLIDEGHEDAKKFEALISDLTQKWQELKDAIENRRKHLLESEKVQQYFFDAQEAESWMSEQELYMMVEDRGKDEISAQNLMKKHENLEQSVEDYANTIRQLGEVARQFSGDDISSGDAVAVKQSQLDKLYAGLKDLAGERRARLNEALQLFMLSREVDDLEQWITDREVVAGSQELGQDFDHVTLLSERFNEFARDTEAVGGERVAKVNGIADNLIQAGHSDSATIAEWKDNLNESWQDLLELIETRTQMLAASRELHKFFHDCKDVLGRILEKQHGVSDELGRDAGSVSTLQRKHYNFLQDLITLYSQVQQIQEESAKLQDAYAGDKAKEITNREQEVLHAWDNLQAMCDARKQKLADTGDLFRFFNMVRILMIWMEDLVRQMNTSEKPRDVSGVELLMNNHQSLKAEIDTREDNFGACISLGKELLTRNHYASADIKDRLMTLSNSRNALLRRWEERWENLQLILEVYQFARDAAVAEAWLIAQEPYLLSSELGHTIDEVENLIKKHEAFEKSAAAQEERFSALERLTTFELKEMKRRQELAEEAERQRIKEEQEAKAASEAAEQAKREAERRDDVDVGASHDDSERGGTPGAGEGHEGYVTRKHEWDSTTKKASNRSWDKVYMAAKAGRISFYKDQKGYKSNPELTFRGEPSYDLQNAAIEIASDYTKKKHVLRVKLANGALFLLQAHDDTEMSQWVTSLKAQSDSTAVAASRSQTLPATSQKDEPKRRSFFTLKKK

Drawing on publication PMC8810934, this text covers binding for 3 substances.

Results are given in words; binding and its absence hold for the method and conditions named. In cells and extracts the contact can be indirect. Some binding calls cover weakened binding; strength is not graded here.

As to “N-terminally truncated wild-type Drosophila β-spectrin fused at the C-terminus to GFP (from UniProt Q00963 45-2291) (domain or fragment)”, the binding result was “binds”.

For “SCA5 (L246P) Drosophila β-spectrin fused at the C-terminus to GFP (from UniProt Q00963 1-2291)”, the binding entry is “binds”.

With “wild-type Drosophila β-spectrin fused at the C-terminus to GFP (from UniProt Q00963 1-2291)”, the binding result is “binds”.
